Consider two molecules from PMC8938454.

Protein sequences, listed by entry. Tags and fused reporters are not part of them.
UniProt P51149: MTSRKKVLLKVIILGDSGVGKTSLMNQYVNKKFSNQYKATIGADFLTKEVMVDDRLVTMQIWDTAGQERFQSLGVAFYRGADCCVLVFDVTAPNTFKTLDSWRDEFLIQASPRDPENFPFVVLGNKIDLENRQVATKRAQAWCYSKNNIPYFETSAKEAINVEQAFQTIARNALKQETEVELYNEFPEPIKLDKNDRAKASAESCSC

These are yes or no findings as the source states them, for the method shown. For some assays here: In cells and extracts the contact can be indirect. Sequences can lack the tags named with a protein.

Test [1] deals with T1, RUFY3-HA, expressed in HEK293T (human) (UniProt Q7L099).
T1 sequence: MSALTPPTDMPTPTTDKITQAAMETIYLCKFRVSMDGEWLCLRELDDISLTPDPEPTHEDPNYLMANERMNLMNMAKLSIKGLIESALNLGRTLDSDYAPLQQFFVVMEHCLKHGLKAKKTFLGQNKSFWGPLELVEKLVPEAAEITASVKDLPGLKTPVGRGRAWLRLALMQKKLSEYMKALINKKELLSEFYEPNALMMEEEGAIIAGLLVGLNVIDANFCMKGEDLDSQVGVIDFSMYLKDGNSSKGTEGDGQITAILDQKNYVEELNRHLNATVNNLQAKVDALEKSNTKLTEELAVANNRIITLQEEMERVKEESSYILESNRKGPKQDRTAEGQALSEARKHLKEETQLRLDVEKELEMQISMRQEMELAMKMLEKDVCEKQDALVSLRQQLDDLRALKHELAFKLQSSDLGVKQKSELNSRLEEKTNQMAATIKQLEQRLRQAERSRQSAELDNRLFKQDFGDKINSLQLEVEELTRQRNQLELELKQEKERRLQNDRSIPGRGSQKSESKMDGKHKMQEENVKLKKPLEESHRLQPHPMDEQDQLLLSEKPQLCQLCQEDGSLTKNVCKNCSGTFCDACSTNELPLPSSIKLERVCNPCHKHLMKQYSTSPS
Briefly: co-IP; lysates of HEK293T cells expressing the HA-tagged bait (RUFY3-HA, Fig. 4b; Arl8b-HA alone or with RUFY3-FLAG, Fig. 5j); precipitates blotted for endogenous partners; TAP lysis buffer.

For test [2], the target named is Rab7, yeast two-hybrid fusion (UniProt P51149). The test can be described thus: two-hybrid; small-scale assay: GAL4-AD and GAL4-BD fusion plasmids co-transformed in S. cerevisiae Y2HGold; spotted on -Leu/-Trp (viability) and -Leu/-Trp/-His (interaction), 30 °C.

Regarding “Rab7, endogenous in HEK293T (from UniProt P51149 1-207)”, the binding entry in test [1] is “no binding”.

B1: RUN and FYVE domain-containing protein 3 (RUFY3), transcript variant 1, yeast two-hybrid fusion (protein, UniProt Q7L099-3 1-620)
chain: T1 sequence
On to B1, for which the binding entry in test [2] is on record as “no binding”.
